# Measurements taken from PubChem BioAssay AID1347075 (National Center for Advancing Translational Sciences (NCATS), 2019).
# “And” between values parts separate entries of the source, which are not always exact repeats. Identical values can stand only once. Among all 400,000 compounds or so, about 5,500 (1.4%) were called active. The inconclusive results got no clear call from the source; some entries with a clear call stand among them for comparison. The call rests on the fitted dose curve; in most records, active means well fitted cell-killing curve with a large enough effect; inconclusive means small, poorly fitted or top-dose-only effect, or effect the other way; inactive means flat fitted curve, though single readings scatter. Where the call is inconclusive, the potency comes from a doubtful curve fit.
# Test: qHTS assay for MDR1-selective chemotherapeutics: Primary screen using the parental adenocarcinoma cell KB-3-1; further: nearly all actives have a fitted effect of over 60% in size
# Conditions: KB-3-1 viability, CellTiter-Glo ATP luminescence, 72 h; activity change, negative = cytotoxic: at 46.1 µM (top of the series)
# How it was run: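 KB-3-1 parental drug-naive adenocarcinoma cells in DMEM/10% FBS, incubated 72 h at 37 C with pin-transferred compounds across a concentration series. Viability by CellTiter-Glo luminescence; concentration-response curves fitted after normalization.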
# On the % scale 0 is the no-effect control and ±100 the full control effect; potency means the concentration at half of the fitted maximal effect.
SMILES,Potency,"activity change, negative = cytotoxic"
COCCNC(=O)C(=O)Nc1ccc2nc3n(c(=O)c2c1)CCCCC3,"inconclusive: 16.4 µM [cytotoxic, single point]",
CCCCCCCCCOC(=O)CNc1nc(C#N)nc(NCC(=O)OCCCCCCCCC)n1,"inconclusive: 20.6 µM [rising, partial curve, poor fit]",
NC(=S)N/N=C/c1c(O)ccc2ccccc12,active: 1.64 µM,
Cc1ccc(C)c(OCCC(=O)NNC(=O)c2cc(C)oc2C)c1,,inactive: 16%
Cc1ccc(-c2cc(-c3ccccc3)nc(Cl)n2)cc1,,inactive: 0%
COc1nc(NC2CCCCC2)nc(N2CCCCCC2)n1,"inconclusive: 14.1 µM [cytotoxic, partial curve, poor fit]",
CN(C)CCCNc1oc(/C=C/c2ccccc2)nc1C#N,,inactive: 24.4%
Cc1ccc2c(cnn2C(=O)CCC(=O)N2CCCCC2C)c1 (stereo not drawn),"inconclusive: 16.4 µM [rising, partial curve, poor fit]",
O=C(Nc1nc(N2C(=O)c3ccccc3C2=O)n(-c2ccccc2)n1)c1ccccc1,"inconclusive: 29.1 µM [rising, single point]",
CCCNC(=O)C1(C)CCN(C(=O)COc2ccc(Cl)cc2Cl)C1 (stereo not drawn),"inconclusive: 0.013 µM [rising, full curve]",
C=C1CCC2C(C)(C)[C@H](O)CC[C@@]2(C)[C@@H]1COc1cc(=O)oc2ccccc12 (stereo partly drawn),,inactive: 0%
COc1ccccc1N1CCN(CC(=O)Nc2cc(C)nn2-c2nc(C)cc(C)n2)CC1,active: 4.61 µM,
NCc1csc(Nc2ccc(C(=O)c3ccccc3)cc2)n1,active: 5.8 µM,
O=C(CN1Cc2ccccc2C1=O)Nc1ccc2c(c1)OCCO2,,inactive: 17.3%
CCN(CC)CCN(Cc1cc2ccc(C)c(C)c2[nH]c1=O)C(=S)NCc1ccco1,"inconclusive: 29.1 µM [cytotoxic, single point]",
COc1ccc(S(=O)(=O)Nc2ccc(O)c(Sc3nc4ccccc4s3)c2)cc1,"inconclusive: 20.6 µM [cytotoxic, single point] and inconclusive: 29.1 µM [cytotoxic, single point]",
Cc1ccc(C(=O)Nc2ncc(Cc3ccccc3)s2)o1,active: 3.55 µM,
CCCCc1c(-c2ccc(OC)c(OC)c2)ncn1CCc1ccccc1OC,"inconclusive: 20.6 µM [cytotoxic, single point]",
COc1ccc(S(=O)(=O)N(C)C)cc1NC(=O)CN1CCN(C(=O)C2CC2)CC1,"inconclusive: 29.1 µM [cytotoxic, single point]",
O=C(Nc1nc(-c2cccs2)c(C(=O)C(F)(F)F)s1)c1ccccc1,"inconclusive: 29.1 µM [cytotoxic, single point]",
CCOC(=O)C1CCc2c(ccc3ccccc23)N1CCC#N (stereo not drawn),"inconclusive: 29.1 µM [cytotoxic, partial curve, poor fit]",
O=C(O)c1cccc(NC(=O)c2cn(-c3ccccc3)nc2-c2cc3ccccc3o2)c1,"inconclusive: 10.3 µM [rising, partial curve, poor fit]",
O=C(CSc1nc2nn(-c3ccccc3)c(=O)c-2c2n1CCCCC2)Nc1ccc(F)cc1F,,inactive: 25.2%

SMILES,Potency,"activity change, negative = cytotoxic"
COc1ccccc1/C=C/C=N/n1c(-c2ccc(F)cc2)n[nH]c1=S,"inconclusive: 3.66 µM [rising, full curve, poor fit]",
CCn1ncc(CN2CCCC(C(=O)Nc3cccc(-c4cc5ccccc5[nH]4)c3)C2)c1C (stereo not drawn),"inconclusive: 13 µM [cytotoxic, partial curve, poor fit]",
Cc1cc(Br)cn2c(Cc3ccccc3)c(-c3ccc(Cl)cc3)nc12,"inconclusive: 25.9 µM [cytotoxic, single point]",
CCSc1nc2c(c(=O)n1CC)SC(C)C2 (stereo not drawn),,inactive: 4.78%
CCOc1ccc(N(C(=O)c2snc(C(N)=O)c2N)C(C(=O)NCC2CCCO2)c2c[nH]c3ccccc23)cc1 (stereo not drawn),"inconclusive: 18.4 µM [cytotoxic, single point]",
Cc1cnccc1CN(C)Cc1nc(Cc2ccccc2Cl)no1,active: 20.6 µM,
CN(C(=O)CSc1nc2ccc(NC(=O)c3ccc(F)cc3)cc2s1)c1ccccc1,"inconclusive: 29.1 µM [cytotoxic, single point]",
Nc1cc2nsnc2cc1Br,,inactive: 7.19%
On1nnc2c3ccccc3c3ccccc3c21,,inactive: -21.6%
O=C(CCCN1C(=O)/C(=C/c2ccccc2)SC1=S)Nc1ccc(O)cc1,"inconclusive: 32.6 µM [cytotoxic, single point]",
Cc1ccc(C(=O)CC(=O)c2ccc(C)cc2O)cc1,"inconclusive: 20.6 µM [cytotoxic, single point]",
O=C1[C@H](Cc2ccccc2)NCCCC[C@@H](c2ccc(Cl)cc2)N1Cc1ccccc1,"inconclusive: 29.1 µM [cytotoxic, single point]",
COc1ccc(Cl)cc1CN1CCN(c2nc(C)cc(C)c2C#N)CC1,"inconclusive: 23.1 µM [cytotoxic, partial curve, poor fit]",
CCCCC(=O)NC(c1ccc([N+](=O)[O-])cc1)c1c(O)ccc2ccccc12 (stereo not drawn),"inconclusive: 20.6 µM [cytotoxic, single point]",
CCN1C(=O)[C@H]2[C@@H](c3ccc(OC)cc3)N[C@]3(CCCN(CC4CCCCC4)C3=O)[C@H]2C1=O,,inactive: 22.1%
CC(C)C[C@@H](CO)N(Cc1ccccc1)S(=O)(=O)N(Cc1ccccc1)[C@@H](CO)CC(C)C,"inconclusive: 29.1 µM [cytotoxic, single point] and active: 23.1 µM",
COc1ccc(-n2nc(C(=O)NCC(=O)NC3CCCCCC3)c3ccccc3c2=O)cc1OC,"inconclusive: 0.0366 µM [rising, full curve]",
Cc1cc(C)cc(Oc2nc3c(C)cccn3c(=O)c2/C=C(\C#N)C(=O)NC2CCS(=O)(=O)C2)c1 (stereo not drawn),"inconclusive: 23.1 µM [cytotoxic, single point]",
COC(=O)N/N=C/c1cc(Cl)cc(Cl)c1OCc1ccccc1F,,inactive: 7.44%
Cc1ccc2nc(C)cc(Cl)c2c1,,inactive: 27.2%
COc1ccccc1C(=O)C1CCCN(C(=O)c2ccco2)C1 (stereo not drawn),,inconclusive: -55.2%
C=CCn1c(CSc2ccc(C)cc2)n[nH]c1=S,,inactive: -0.109%
Cc1sc(NC(=O)c2cccnc2)nc1-c1ccccc1,,inactive: -6.9%

SMILES,Potency,"activity change, negative = cytotoxic"
COc1ccc(-c2noc(C(C)n3nc(C)c([N+](=O)[O-])c3C)n2)cc1OC (stereo not drawn),"inconclusive: 29.1 µM [cytotoxic, single point]",
CCCCCCSc1cc(-c2nc3ccc(C)cn3c2NCc2ccccc2)ccc1OC,"inconclusive: 16.4 µM [cytotoxic, single point]",
CCCCC(=O)N(C)c1c(CC)nc2c(OCc3ccc(Cl)cc3Cl)cccn12,"inconclusive: 29.1 µM [cytotoxic, single point]",
O=C(CCC(=O)Nc1cccc(Cl)c1)N/N=C/c1cc([N+](=O)[O-])ccc1O,,inactive: -14%
CCn1cc(C(=O)NCCc2ccc(Cl)cc2)c(=O)c2cc(S(=O)(=O)N3CCOCC3)ccc21,"inconclusive: 29.1 µM [rising, single point]",
O=C1C(=Cc2ccncc2)CCCc2ccccc21,"inconclusive: 9.2 µM [cytotoxic, partial curve, poor fit]",
O=C(N/N=C/c1ccc2ncccc2c1)c1cc(-c2cccs2)nc2ccccc12,"inconclusive: 23.1 µM [cytotoxic, single point]",
CN(C)C(=O)c1ccc(SC(=S)NCc2ccccc2)cc1,active: 6.51 µM,
CCc1ccc(OCC(=O)NCC(c2ccc(Cl)cc2)N2CCCCC2)cc1 (stereo not drawn),"inconclusive: 29.1 µM [cytotoxic, single point]",
Cc1cc(N2CCCCCC2)nc(-c2ccccc2O)n1,"inconclusive: 29.1 µM [cytotoxic, single point]",
Cc1noc(NS(=O)(=O)c2ccc(NC(=O)c3ccccc3NS(=O)(=O)c3ccc(F)cc3)cc2)c1C,"inconclusive: 29.1 µM [rising, single point]",
COc1ccc(-c2onc(C)c2-c2ccccc2)c(O)c1,"inconclusive: 20.6 µM [cytotoxic, single point]",
COC(=O)c1c(NC(=O)c2ccc([N+](=O)[O-])o2)sc2c1CCN(C(C)C)C2,active: 6.51 µM,
CC(=O)NC1=C(NC2CCS(=O)(=O)C2)C(=O)c2ccccc2C1=O (stereo not drawn),"inconclusive: 29.1 µM [cytotoxic, single point]",
Cn1c(=O)c2c(ncn2CC(=O)Nc2cccc(S(=O)(=O)Nc3ccccc3F)c2)n(C)c1=O,"inconclusive: 29.1 µM [rising, single point]",
COc1ccccc1C(=O)NCCC(=O)NC1CCCC(C)C1C (stereo not drawn),"inconclusive: 16.4 µM [rising, partial curve, poor fit]",
COc1cc2c3c([nH]c2cc1F)C(=O)NCC3,"inconclusive: 20.6 µM [cytotoxic, single point]",
COc1ccc(-c2c(-c3cc(OC)cc(OC)c3)n(C)c3ccc(-c4ccn[nH]4)cc23)cc1,"inconclusive: 29.1 µM [cytotoxic, single point]",
CN(C)CCN(C)Cc1ccccc1Sc1cccc2ccccc12,"inconclusive: 16.4 µM [cytotoxic, single point]",
COc1ccc(/C=C/C(=O)c2c(C)cc(C)[nH]c2=O)c2ccccc12,"inconclusive: 25.9 µM [cytotoxic, single point]",
Cc1ccc([N+](=O)[O-])cc1NC(=O)Nc1onc(C)c1C,,inactive: -2.2%
CCCCN(C)S(=O)(=O)c1ccc(C(=O)Nc2nnc(C3=COCCO3)o2)cc1,,inactive: -22.5%
